Experimental data from the supplement of paper PMC3334620.
Over roughly 33,000 sequences, “E-score (-0.5 to 0.5)” has its median near -0.0034; the highest 2% begin near 0.25. Some of the results follow.

The sequences below were run against T1, Yap3 (UniProt P38749) (assay: PBM E-score (8-mer binding enrichment) (E-score (-0.5 to 0.5)); higher = stronger / more preferred TF binding). Conditions: protein concentration: 100 nM; construct: GST-full length.
T1 sequence: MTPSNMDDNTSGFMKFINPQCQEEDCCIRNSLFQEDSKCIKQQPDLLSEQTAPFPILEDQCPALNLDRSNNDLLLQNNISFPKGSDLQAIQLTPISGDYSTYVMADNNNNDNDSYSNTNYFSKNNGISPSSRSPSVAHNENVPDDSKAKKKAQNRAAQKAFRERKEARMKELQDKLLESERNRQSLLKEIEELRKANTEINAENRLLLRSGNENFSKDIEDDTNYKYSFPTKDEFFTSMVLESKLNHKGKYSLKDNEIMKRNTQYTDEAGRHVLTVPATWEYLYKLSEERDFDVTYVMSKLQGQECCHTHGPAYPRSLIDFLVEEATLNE
Procedure: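 Universal 'all 10-mer' protein binding microarrays (Agilent AMADID 015681) probed with GST-tagged S. cerevisiae TFs (full-length or DBD) made by in vitro transcription/translation (PURExpress), about 100-200 nM. Bound TF was detected with fluorescent anti-GST. Each ungapped 8-mer (which stands for itself and its reverse complement) is scored by the PBM enrichment score (E-score), a modified Wilcoxon-Mann-Whitney statistic from -0.5 to +0.5, computed with the Universal PBM Analysis Suite. Scale: above 0.35 generally sequence-specific binding.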

Sequence	PBM E-score
AGCCTGAG	-0.228
CAGTTTTC	0.206
AGACAACC	0.121
AATGTCAA	0.0174
ATGCACAG	-0.14
CAGTCAAC	-0.0224
AAAACAGG	0.00513
AGACTCGC	-0.169
ACGGGGCA	-0.283
AATGCTGG	0.0512
AAGATACG	-0.018
CGCATAAG	0.145
CATACTCC	-0.0395
AGTTGCTG	-0.0839
GCTGAAAC	-0.0804
ATGAGTCG	0.0895
GACAGCTA	-0.119
AAACCAAG	0.107
ATTCTGGG	0.0207
CCCGCGGA	0.115
CCTTACGC	0.162
ACCCCCGT	-0.333
CTCCTCCC	-0.358
AATTGCTA	0.121
CATATTAC	0.282

Sequence	PBM E-score
AATTACTA	0.325
AGCAGGTA	-0.02
GTATAGAC	0.0787
CCTATGTA	0.0458
GCAGATGA	-0.0542
CGGCGCTA	-0.16
ACCAAGGC	-0.116
CGCAAACG	0.0764
CAAACCGG	-0.0147
ATTATCAG	0.0829
AGATGTAC	0.00924
ATTAAATA	0.268
ATACAGGC	0.0169
CCTGCAAC	-0.0602
AGGGTAAC	-0.00638
CGATGAGA	0.0779
GGGCTCAC	-0.346
ATCACACC	-0.00654
CATGTGGA	-0.0243
CTCTACAC	0.00564
ACCAGGTC	-0.0571
AGACGAAC	0.164
AAGGTCCC	-0.0432
ACGGTAAC	0.0997
GCTCTGAA	-0.14

A different layout for part of the listing above:
Sequence,PBM E-score
AGACAACC,0.121
AATGTCAA,0.0174
ATGCACAG,-0.14
CAGTCAAC,-0.0224
AAAACAGG,0.00513
AGACTCGC,-0.169
ACGGGGCA,-0.283
AATGCTGG,0.0512
AAGATACG,-0.018
CGCATAAG,0.145
CATACTCC,-0.0395
AGTTGCTG,-0.0839
GCTGAAAC,-0.0804
ATGAGTCG,0.0895
GACAGCTA,-0.119
AAACCAAG,0.107
ATTCTGGG,0.0207
CCCGCGGA,0.115
CCTTACGC,0.162
ACCCCCGT,-0.333
CTCCTCCC,-0.358
AATTGCTA,0.121
CATATTAC,0.282
AATTACTA,0.325
AGCAGGTA,-0.02
GTATAGAC,0.0787
CCTATGTA,0.0458
GCAGATGA,-0.0542
CGGCGCTA,-0.16
ACCAAGGC,-0.116
CGCAAACG,0.0764
CAAACCGG,-0.0147
ATTATCAG,0.0829
AGATGTAC,0.00924
ATTAAATA,0.268
ATACAGGC,0.0169
CCTGCAAC,-0.0602
AGGGTAAC,-0.00638
CGATGAGA,0.0779
GGGCTCAC,-0.346
ATCACACC,-0.00654
CATGTGGA,-0.0243
CTCTACAC,0.00564
ACCAGGTC,-0.0571
AGACGAAC,0.164

More records follow:

Sequence	PBM E-score
ATCCGGGA	-0.067
ATAGTCAC	0.124
AGTGTCCG	-0.0603
AGGATATC	0.026
CGATTCAA	-0.0579
GCCACAAA	0.0416
ACGAATCT	0.0139
CAGACCGA	-0.0599
CTTGATCA	0.0254
AAATCCTA	0.102
ACGCCTCC	-0.238
ATCCCCAG	-0.25
AGAACCGG	0.0285
CTCACAGC	-0.0856
ACCAATTG	-0.0264
ATCTGCGG	-0.0331
CACCGAAA	0.0611
ATCTGAAT	0.135
CCCGGCGC	-0.325
CCGTTGCC	-0.26
AGCCGTTG	0.0468
AGGGGGAG	-0.217
ACTGAAGA	-0.0543
AGAGATTA	0.12
CATAGGAG	0.053

Sequence	PBM E-score
ACTAACCA	0.0355
GCGCCTAA	0.117
ACCCGACG	-0.103
TAAGGCAA	0.0224
ATACCTTA	0.107
AGTCATTG	-0.0148
CCACGGCA	-0.138
TCAGGCCA	-0.0876
AGTGTTAG	0.171
AGTGCAGG	-0.00401
CCGAACTC	-0.0627
GGCTGTCA	-0.175
ACAGGGAG	-0.227
AGCGGAAA	0.127
ACTCTCAT	0.0427
CCATGTAA	0.0692
AGATACCA	0.234
ACAATTTA	0.193
GAATCTGA	-0.0334
TCACACAA	-0.107
AACGCACG	0.181
CTTGCGGC	-0.0408
CTCCAGGC	-0.0968
GGCCGGCC	-0.243
ACACCCTC	-0.184

Sequence	PBM E-score
ATGCGACA	0.102
GCGAACGA	0.0416
CTTCTGCA	-0.0661
GGCAGCAA	-0.0159
AATCCCGG	-0.139
CGTATTCC	0.0929
GCAGACCC	-0.24
CATGGTGG	-0.102
ACTCGGCT	-0.156
GATCCGAC	-0.0901
CGGCAGCC	-0.207
AATCTTAC	0.233
AGTCCATA	-0.0535
AAGATGTC	-0.0778
AATCGTGT	0.113
CACGAGCC	-0.19
AAGTTTGA	0.128
AGCTTGCA	-0.012
ACGTCCGA	-0.0933
AGTCTTAC	0.0364
AGACGTCA	-0.0966
AACTCGGA	0.122
CTTTCCAA	0.0339
AAGCACAT	0.0692
ATCCACGG	-0.0109

Sequence	PBM E-score
GTCCCGTA	-0.227
CATGTGCC	0.0285
CCGTATCC	-0.154
AATTTAAC	0.113
CACACTAC	-0.0489
AGGGATAT	0.0521
CAGGGGCA	-0.0801
CTCCTTCA	-0.0217
AGTTTGTG	-0.00677
CTCATGAA	0.121
ATAAACAA	0.279
AATTTGCA	0.127
GCGTAACA	0.11
CCCATGGC	-0.258
GTCAAACA	-0.116
GTAAGGAA	0.193
CGAGCGAG	0.232
ATTATTCG	0.274
ACCCCGTG	-0.175
CCGCTGGA	-0.108
CGTAATAC	0.318
TTAAAAAA	0.25
GTAGCATA	-0.059
CGCATACC	0.144
AGGCGTAA	0.0317

Sequence	PBM E-score
AAGGCATG	0.0283
AAACCTGT	0.0503
ACATATTC	0.217
CAGACGGA	0.0783
ACTAGCAT	-0.0172
AGGCAGTC	-0.114
GGTCCGCA	-0.153
ATCCTCAT	0.0382
ACCTGCAT	0.102
CTAATAAG	0.172
CTCAATTA	0.156
CGACACGA	0.154
AACGAAGC	-0.0177
CCAACGTC	-0.155
CCTTCTCC	-0.234
CTAGTTAC	-0.00268
ATCAGACA	0.101
AACTTGCG	-0.0625
AGGTTGAC	0.075
AAGGATTA	0.0246
GTACATTA	0.0635
CAAGTACA	-0.0722
